Source: PubChem BioAssay AID204 (DTP/NCI, 2004)
The list shows only some results of the screen, not a fair sample: it is rich in T/C values a quarter to a half above the control, in often repeated tests (any T/C) and in doses without a T/C. Other doses and runs of a compound stand elsewhere. T/C: endpoint of the treated group in % of that of the vehicle group. Some entries give survivors of the animals treated and no T/C: the source files T/C as zero there, which appears to mark a toxic dose or a test without result, not a measured value. Some survivor counts are full or nearly so, which does not show that the dose was tolerated: survival well below the control is almost never listed, so the zero probably covers shortened survival too. Survivors were counted at the toxicity check, usually on the fifth day, unless a day is given; later deaths do not show. Schedules are NCI's codes, read here as Q, the interval in days (D) or hours (H), X, the number of doses. Some entries were tested several times; the values are given in rising order. Some molecules as drawn cover several salts, stereoisomers or complexes of the source; a dose is that of the sample tested. For survival time, this PubChem deposit counts one and a half times the control or more as active, and values a quarter to a half above the control carry no call in these data; other NCI protocols may use other cut-offs. Additions like (4×) give the number of equal values in this list. Some T/C values carry the count of animals alive at the toxicity check (mostly the fifth day); where none is given, no animal had died by that day. Starred links: 1 amine or outer side, 2 acyl side, 3 side chain; linkers in the order of their positions; H or OH if unused. Positions of bridges follow the written chain, without caps; N, C: chain ends. Non-standard residues stand in square brackets, D forms with d. Residues, ends and D or L forms follow the SMILES beside them. Chains are numbered I, II in the order given. Actinocin(9to1) = Cc1c2oc3c(C)ccc(C(=O)[*:1])c3nc-2c(C(=O)[*:2])c(N)c1=O; aThr = C[C@H](O)[C@H](N)C(=O)O; NMeV = CN[C@H](C(=O)O)C(C)C; Sar = CNCC(=O)O

Test system: BDF1 mice, P288 methotrexate-resistant leukemia, survival T/C
Test: NCI In Vivo Anticancer Drug Screen. Data for tumor model P288 Lymphocytic Leukemia resistant to methotrexate; NSC 740 (intraperitoneal) in B6D2F1 (BDF1) mice
Settings: T/C endpoint: median survival time, schedule: Q01DX010 (ip), higher T/C = longer survival
Description: The antitumor activity of compounds was measured in mice bearing transplantable tumors. Survival or tumor size were measured and the results are expressed as the measurement made in the treated group (T) divided by the measurement made in the vehicle treated control group (C). The tumor model used in this assay is P288 Lymphocytic Leukemia resistant to methotrexate; NSC 740 (intraperitoneal) in B6D2F1 (BDF1) mice

[1] = dose: 400.0 mg/kg/injection, vehicle: saline
[2] = dose: 16.0 mg/kg/injection, vehicle: saline
[3] = dose: 125.0 mg/kg/injection, vehicle: saline
[4] = dose: 4.0 mg/kg/injection, vehicle: saline
[5] = dose: 5.0 mg/kg/injection, vehicle: saline
[6] = dose: 10.0 mg/kg/injection, vehicle: saline
[7] = dose: 20.0 mg/kg/injection, vehicle: saline
[8] = dose: 50.0 mg/kg/injection, vehicle: saline
[9] = dose: 100.0 mg/kg/injection, vehicle: saline
[10] = dose: 200.0 mg/kg/injection, vehicle: saline
[11] = dose: 0.25 mg/kg/injection, vehicle: saline
[12] = dose: 0.5 mg/kg/injection, vehicle: saline
[13] = dose: 1.0 mg/kg/injection, vehicle: saline
[14] = dose: 2.0 mg/kg/injection, vehicle: saline
[15] = dose: 6.25 mg/kg/injection, vehicle: saline
[16] = dose: 12.5 mg/kg/injection, vehicle: saline
[17] = dose: 25.0 mg/kg/injection, vehicle: saline
[18] = dose: 8.0 mg/kg/injection, vehicle: saline
[19] = dose: 2.5 mg/kg/injection, vehicle: saline
[20] = dose: 62.5 micrograms/kg/injection, vehicle: saline
[21] = dose: 240.0 mg/kg/injection, vehicle: saline
[22] = dose: 40.0 mg/kg/injection, vehicle: saline
[23] = dose: 80.0 mg/kg/injection, vehicle: saline
[24] = dose: 120.0 mg/kg/injection, vehicle: saline

## CN(C)/N=N/c1nc[nH]c1C(N)=O
[1]
  survivor count: 5 of 8

## O=c1cnn(C2OC(CO)C(O)C2O)c(=O)[nH]1 (centres undefined)
dose: 1600.0 mg/kg/injection, vehicle: saline
  survivor count: 6 of 6

## O=C(Nc1ccc(NC2=NCCN2)cc1)c1ccc(C(=O)Nc2ccc(NC3=NCCN3)cc2)cc1
[2]
  T/C: 130 % of control

## CCCSc1ncnc2nc[nH]c12
[3]
  survivor count: 5 of 6
dose: 250.0 mg/kg/injection, vehicle: saline
  survivor count: 0 of 6

## NC(=O)N(CCCl)N=O
[4]
  survivor count: 6 of 6

## C[C@H](N)C(=O)N[C@@H]1[C@H]2C(=C(O)C[C@@H](O)[C@@H]2O)C(=O)O[C@@H]1C
dose: 300.0 mg/kg/injection, vehicle: saline
  T/C: 125 % of control

## N#[N+]c1cnc([O-])[nH]c1=O
[5]
  T/C: 125 and 127 % of control
[6]
  T/C: 133 and 145 % of control
[7]
  survivor count: 3 of 6

## CC(=O)Nc1ccc2nc3ccc(NC(C)=O)cc3[n+](-c3ccccc3)c2c1
[8]
  T/C: 127 % of control
[9]
  T/C: 125 and 131 % of control
[10]
  T/C: 140 % of control
[1]
  T/C: 125 % of control
  survivor count: 6 of 6

## Cc1c2oc3c(C)ccc(C(=O)N[C@@H]4C(=O)N[C@H](C(C)C)C(=O)N5CCC[C@H]5C(=O)N(C)CC(=O)N(C)[C@@H](C(C)C)C(=O)O[C@H]4C)c3nc-2c(C(=O)N[C@@H]2C(=O)N[C@H](C(C)C)C(=O)N3CCC[C@H]3C(=O)N(C)CC(=O)N(C)[C@@H](C(C)C)C(=O)O[C@H]2C)c(N)c1=O (I: [aThr][dV]P[Sar][NMeV] / II: [aThr][dV]P[Sar][NMeV]; ester I:1-I:C, II:1-II:C; linker I:N-II:N via Actinocin(9to1))
dose: 12.5 micrograms/kg/injection, vehicle: other
  T/C: 135 % of control [5 of 6 alive]
dose: 100.0 micrograms/kg/injection, vehicle: other
  T/C: 125 % of control

## O=c1[nH]cc(F)c(=O)[nH]1
[5]
  T/C: 131 % of control
[6]
  T/C: 125 and 140 % of control
[7]
  T/C: 133 % of control

## N#C[C@@H]1C2C=CC(CC2)[C@H]1C#N
[11]
  survivor count: 6 of 6
[12]
  survivor count: 6 of 6
[13]
  survivor count: 6 of 6
[14]
  survivor count: 6 of 6

## CC(CCC(C)OS(C)(=O)=O)OS(C)(=O)=O (centres undefined)
[14]
  survivor count: 6 of 6
[4]
  survivor count: 6 of 6
dose: 32.0 mg/kg/injection, vehicle: saline
  T/C: 127 % of control

## CS(=O)(=O)OCCCCOS(C)(=O)=O
[15]
  survivor count: 6 of 6
[16]
  survivor count: 6 of 6
[17]
  survivor count: 6 of 6
[8]
  survivor count: 6 of 6

## NC(Cc1c[nH]c2ccc(N(CCCl)CCCl)cc12)C(=O)O (centres undefined)
[13]
  T/C: 127 % of control
[14]
  T/C: 145 % of control
[4]
  T/C: 145 % of control

## S=P(N1CC1)(N1CC1)N1CC1
dose: 1.5 mg/kg/injection, vehicle: saline
  T/C: 125 % of control
dose: 3.0 mg/kg/injection, vehicle: saline
  T/C: 133 and 145 % of control

## Nc1nc(=S)c2ncn(C3OC(CO)C(O)C3O)c2[nH]1 (centres undefined)
[18]
  T/C: 130 % of control
  survivor count: 6 of 6

## CS(=O)(=O)OCCCl
dose: 18.8 mg/kg/injection, vehicle: saline
  survivor count: 6 of 6
dose: 37.5 mg/kg/injection, vehicle: saline
  survivor count: 6 of 6

## CS(=O)(=O)OCCN(CCOS(C)(=O)=O)c1ccc(N=O)cc1
[13]
  T/C: 129 % of control
[14]
  survivor count: 4 of 6 and 6 of 6
[4]
  survivor count: 5 of 6
[18]
  survivor count: 1 of 6
[2]
  survivor count: 0 of 6

## Nc1nc(=S)c2[nH]cnc2[nH]1
dose: 5.0 mg/kg/injection, vehicle: other
  T/C: 137 % of control

## CC[C@]1(O)C[C@H]2CN(CCc3c([nH]c4ccccc34)[C@@](C(=O)OC)(c3cc4c(cc3OC)N(C=O)[C@H]3[C@@](O)(C(=O)OC)[C@H](OC(C)=O)[C@]5(CC)C=CCN6CC[C@]43[C@@H]65)C2)C1
dose: 0.06 mg/kg/injection, vehicle: saline
  T/C: 136 % of control
[11]
  survivor count: 6 of 6
[12]
  survivor count: 6 of 6
[5]
  survivor count: 2 of 6

## COc1cc(-c2ccc(Nc3ccccc3C(=O)O)c(OC)c2)ccc1Nc1ccccc1C(=O)O
[16]
  T/C: 127 % of control

## C1CN1c1nc(N2CC2)nc(N2CC2)n1
[13]
  survivor count: 6 of 6

## NC(Cc1ccc(N(CCCl)CCCl)cc1)C(=O)O (centres undefined)
[19]
  T/C: 140 % of control
[5]
  T/C: 136 and 143 % of control
dose: 8.0 mg/kg/injection, vehicle: other
  T/C: 140 % of control
[6]
  T/C: 125 % of control
  survivor count: 6 of 6
[7]
  survivor count: 6 of 6

## O[C@H](CN1CC1)[C@@H](O)CN1CC1
[20]
  T/C: 145 % of control
  survivor count: 6 of 6
dose: 125.0 micrograms/kg/injection, vehicle: saline
  T/C: 130 % of control
dose: 250.0 micrograms/kg/injection, vehicle: saline
  T/C: 136 % of control

## O=NN(CCCl)C(=O)NCCCl
[16]
  T/C: 145 % of control
[17]
  survivor count: 6 of 6
[8]
  survivor count: 4 of 6 and 5 of 6

## CN(N=O)C(=O)NC(C=O)C(O)C(O)C(O)CO (centres undefined)
[8]
  T/C: 130 % of control

## Oc1cc(CN(CCCl)CCCl)c(O)cc1CN(CCCl)CCCl
dose: 1.25 mg/kg/injection, vehicle: saline
  T/C: 131 % of control
[19]
  T/C: 131 and 142 % of control
[5]
  T/C: 145 % of control

## CSc1ncnc2nc[nH]c12
[16]
  T/C: 95, 96, 100 % of control
  survivor count: 6 of 6
[17]
  T/C: 90 and 100 % of control (2×)
  survivor count: 6 of 6
[8]
  survivor count: 6 of 6
[9]
  survivor count: 6 of 6
[10]
  survivor count: 6 of 6

## C[N+](C)(C)c1ncnc2nc[nH]c12
[21]
  survivor count: 2 of 6

## CCCNc1ncnc2[nH]ncc12
dose: 3.13 mg/kg/injection, vehicle: saline
  survivor count: 6 of 6
[15]
  survivor count: 0 of 6 and 4 of 6
[16]
  survivor count: 0 of 6
[17]
  survivor count: 0 of 6

## CN(C)c1ccc(/C=C/c2ccnc3ccccc23)cc1
[5]
  survivor count: 6 of 6

## Cn1c(N)nc2nc[nH]c2c1=S
[6]
  survivor count: 6 of 6
[7]
  survivor count: 6 of 6
[22]
  survivor count: 6 of 6
[23]
  survivor count: 6 of 6

## [I][Hg][CH2]C1COC([CH2][Hg][I])CO1 (centres undefined)
[16]
  survivor count: 6 of 6
[8]
  survivor count: 5 of 6
[9]
  survivor count: 5 of 6

## N#CCSc1ncnc2nc[nH]c12
[24]
  survivor count: 6 of 6
[21]
  survivor count: 0 of 6

## COS(C)(=O)=O
[16]
  survivor count: 6 of 6
[17]
  survivor count: 6 of 6
[9]
  survivor count: 5 of 6

## CCOC(N)=O
[3]
  survivor count: 5 of 6

## CN(C)c1ccc(Nc2c3ccccc3nc3ccccc23)cc1
[23]
  T/C: 129 and 134 % of control
[24]
  survivor count: 6 of 6

## C[C@@H]1C[C@@H]([C@H](O)CC2CC(=O)NC(=O)C2)C(=O)[C@@H](C)C1
[7]
  T/C: 131 % of control
[22]
  T/C: 125 % of control
